Assay results as given in publication PMC8880450.
No constants are given. Whether binding was seen depends on the method and setting. In cells and extracts the contact can be indirect. Some binding calls cover weakened binding; strength is not graded here.

Chains of the proteins cited; added tags and fusions are not shown. Lines headed by an entry give the natural chain unless they say otherwise; changes in a name come on top.
UniProt P03466: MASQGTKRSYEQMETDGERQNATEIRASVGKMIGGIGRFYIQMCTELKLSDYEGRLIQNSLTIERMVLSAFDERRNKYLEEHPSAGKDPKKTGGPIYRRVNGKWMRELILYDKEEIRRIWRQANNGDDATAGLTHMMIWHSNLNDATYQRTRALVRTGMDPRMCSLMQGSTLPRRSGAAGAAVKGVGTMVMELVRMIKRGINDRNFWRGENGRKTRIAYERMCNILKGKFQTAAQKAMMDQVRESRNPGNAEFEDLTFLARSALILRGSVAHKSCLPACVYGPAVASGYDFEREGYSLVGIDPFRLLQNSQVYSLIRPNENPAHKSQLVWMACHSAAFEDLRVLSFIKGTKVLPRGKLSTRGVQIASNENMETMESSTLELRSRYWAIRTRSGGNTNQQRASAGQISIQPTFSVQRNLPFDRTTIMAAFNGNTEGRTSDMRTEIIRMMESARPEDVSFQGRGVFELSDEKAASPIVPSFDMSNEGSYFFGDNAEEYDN
UniProt P09651: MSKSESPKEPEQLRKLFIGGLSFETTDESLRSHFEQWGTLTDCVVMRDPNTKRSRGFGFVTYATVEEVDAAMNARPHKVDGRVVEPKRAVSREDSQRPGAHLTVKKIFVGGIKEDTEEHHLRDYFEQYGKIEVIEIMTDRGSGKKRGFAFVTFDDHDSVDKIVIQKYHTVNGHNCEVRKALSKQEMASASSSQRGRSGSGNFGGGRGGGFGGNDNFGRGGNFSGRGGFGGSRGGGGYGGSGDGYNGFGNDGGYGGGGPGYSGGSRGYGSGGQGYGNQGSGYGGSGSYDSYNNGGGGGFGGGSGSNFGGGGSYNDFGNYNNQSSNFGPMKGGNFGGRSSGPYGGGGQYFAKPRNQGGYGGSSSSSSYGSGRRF

What was measured:
Assay in all cases: co-IP
[1] = biological target: Nucleoprotein (NP) of influenza A virus A/Puerto Rico/8/34 (PR8) H1N1, made in infected cells (Influenza A virus A/Puerto Rico/8/34 (H1N1)) (UniProt P03466)
[2] = biological target: Nucleoprotein (NP) of influenza A virus A/Puerto Rico/8/34 (PR8) H1N1, myc/His-tagged (Influenza A virus A/Puerto Rico/8/34 (H1N1)) (UniProt P03466)
[3] = biological target: Heterogeneous ribonucleoprotein A1 (hnRNPA1), endogenous in HEK cells (human (endogenous in HEK)) (UniProt P09651)

## Heterogeneous ribonucleoprotein A1 (hnRNPA1), endogenous in A549 cells (from UniProt P09651-1 1-372)
[1]
  binding: binds

## Heterogeneous ribonucleoprotein A1 (hnRNPA1), endogenous in HEK cells (from UniProt P09651-1 1-372)
[2]
  binding: binds

## Nucleoprotein (NP) of influenza A virus A/Puerto Rico/8/34 (PR8) H1N1, myc/His-tagged (from UniProt P03466 1-498)
[3]
  binding: binds
